Reference: the supplement of paper PMC10849652
The list shows a part of the results.

Amino acid sequences for entries named in this document (tags omitted). A change or cut given only in a name is not applied to a line headed by its entry.
UniProt P22352, whole entry, looked up: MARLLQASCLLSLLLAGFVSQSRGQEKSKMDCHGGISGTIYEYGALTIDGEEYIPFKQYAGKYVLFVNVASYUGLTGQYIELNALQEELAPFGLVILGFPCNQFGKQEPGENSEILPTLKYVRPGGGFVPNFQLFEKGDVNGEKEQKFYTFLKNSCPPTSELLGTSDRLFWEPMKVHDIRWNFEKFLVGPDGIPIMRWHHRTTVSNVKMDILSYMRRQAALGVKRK
UniProt P43304: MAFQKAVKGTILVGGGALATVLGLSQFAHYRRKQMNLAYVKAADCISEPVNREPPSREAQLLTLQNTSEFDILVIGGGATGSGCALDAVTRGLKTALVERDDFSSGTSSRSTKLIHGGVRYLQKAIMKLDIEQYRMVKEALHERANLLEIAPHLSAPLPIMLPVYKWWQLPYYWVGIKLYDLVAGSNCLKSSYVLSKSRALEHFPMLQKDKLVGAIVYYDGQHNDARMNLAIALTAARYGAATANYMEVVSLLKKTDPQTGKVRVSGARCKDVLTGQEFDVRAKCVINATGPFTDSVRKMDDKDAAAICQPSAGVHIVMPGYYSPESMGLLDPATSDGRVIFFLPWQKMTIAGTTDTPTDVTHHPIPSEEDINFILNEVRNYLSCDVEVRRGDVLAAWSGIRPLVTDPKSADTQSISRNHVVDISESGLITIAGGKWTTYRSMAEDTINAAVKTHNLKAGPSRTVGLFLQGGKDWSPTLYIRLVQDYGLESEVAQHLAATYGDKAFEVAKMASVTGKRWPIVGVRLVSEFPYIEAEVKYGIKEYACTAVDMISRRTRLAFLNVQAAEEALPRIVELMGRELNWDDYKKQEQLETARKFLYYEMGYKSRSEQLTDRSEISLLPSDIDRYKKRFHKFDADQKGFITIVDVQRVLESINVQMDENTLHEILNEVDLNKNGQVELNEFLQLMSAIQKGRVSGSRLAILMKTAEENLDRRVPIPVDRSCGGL
UniProt Q86UL3: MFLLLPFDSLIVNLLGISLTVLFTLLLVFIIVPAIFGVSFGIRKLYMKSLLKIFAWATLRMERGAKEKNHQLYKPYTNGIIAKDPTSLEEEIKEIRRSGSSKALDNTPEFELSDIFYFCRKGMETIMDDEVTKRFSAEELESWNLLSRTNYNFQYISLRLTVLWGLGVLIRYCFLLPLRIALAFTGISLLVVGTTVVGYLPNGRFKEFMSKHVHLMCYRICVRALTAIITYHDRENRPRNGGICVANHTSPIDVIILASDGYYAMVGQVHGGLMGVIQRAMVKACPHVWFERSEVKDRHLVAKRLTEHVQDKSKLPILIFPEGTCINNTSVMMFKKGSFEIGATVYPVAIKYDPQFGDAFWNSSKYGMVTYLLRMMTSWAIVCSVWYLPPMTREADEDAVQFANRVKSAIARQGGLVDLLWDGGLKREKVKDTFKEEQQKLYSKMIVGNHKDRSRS
UniProt Q96EK6: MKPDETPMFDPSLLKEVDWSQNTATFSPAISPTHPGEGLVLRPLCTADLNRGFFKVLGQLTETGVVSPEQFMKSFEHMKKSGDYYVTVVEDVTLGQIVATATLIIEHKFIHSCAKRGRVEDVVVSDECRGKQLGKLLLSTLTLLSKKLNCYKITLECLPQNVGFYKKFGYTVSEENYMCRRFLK
UniProt Q92896: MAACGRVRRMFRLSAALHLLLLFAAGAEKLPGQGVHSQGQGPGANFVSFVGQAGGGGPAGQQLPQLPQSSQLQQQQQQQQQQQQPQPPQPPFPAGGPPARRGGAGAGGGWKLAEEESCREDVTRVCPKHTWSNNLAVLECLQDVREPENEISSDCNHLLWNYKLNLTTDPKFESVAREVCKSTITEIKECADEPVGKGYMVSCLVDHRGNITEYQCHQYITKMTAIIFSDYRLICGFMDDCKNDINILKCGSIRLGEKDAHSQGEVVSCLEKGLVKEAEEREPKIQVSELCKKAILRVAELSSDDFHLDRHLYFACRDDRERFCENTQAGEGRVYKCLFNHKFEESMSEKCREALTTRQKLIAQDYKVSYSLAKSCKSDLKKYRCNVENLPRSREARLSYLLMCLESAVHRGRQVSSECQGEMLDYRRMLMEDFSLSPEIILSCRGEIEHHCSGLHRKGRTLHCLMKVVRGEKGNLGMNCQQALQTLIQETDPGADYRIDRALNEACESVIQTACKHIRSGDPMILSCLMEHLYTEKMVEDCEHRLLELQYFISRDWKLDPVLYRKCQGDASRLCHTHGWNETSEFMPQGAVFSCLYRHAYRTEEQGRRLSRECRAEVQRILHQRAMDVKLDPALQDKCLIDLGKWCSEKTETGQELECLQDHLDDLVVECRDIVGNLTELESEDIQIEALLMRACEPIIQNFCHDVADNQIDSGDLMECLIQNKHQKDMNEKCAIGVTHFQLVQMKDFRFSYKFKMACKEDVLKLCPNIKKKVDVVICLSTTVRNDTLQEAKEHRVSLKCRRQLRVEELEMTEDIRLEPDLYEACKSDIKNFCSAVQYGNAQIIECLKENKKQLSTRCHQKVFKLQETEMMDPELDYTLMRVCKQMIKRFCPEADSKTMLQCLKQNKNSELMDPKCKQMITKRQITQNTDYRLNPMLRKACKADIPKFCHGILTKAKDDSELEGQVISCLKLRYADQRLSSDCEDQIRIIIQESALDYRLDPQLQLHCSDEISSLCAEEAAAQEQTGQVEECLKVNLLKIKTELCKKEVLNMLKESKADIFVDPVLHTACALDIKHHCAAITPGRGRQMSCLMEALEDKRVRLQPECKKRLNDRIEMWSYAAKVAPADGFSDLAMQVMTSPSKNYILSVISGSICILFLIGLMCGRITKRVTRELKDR
UniProt Q9HCN4, whole entry, looked up: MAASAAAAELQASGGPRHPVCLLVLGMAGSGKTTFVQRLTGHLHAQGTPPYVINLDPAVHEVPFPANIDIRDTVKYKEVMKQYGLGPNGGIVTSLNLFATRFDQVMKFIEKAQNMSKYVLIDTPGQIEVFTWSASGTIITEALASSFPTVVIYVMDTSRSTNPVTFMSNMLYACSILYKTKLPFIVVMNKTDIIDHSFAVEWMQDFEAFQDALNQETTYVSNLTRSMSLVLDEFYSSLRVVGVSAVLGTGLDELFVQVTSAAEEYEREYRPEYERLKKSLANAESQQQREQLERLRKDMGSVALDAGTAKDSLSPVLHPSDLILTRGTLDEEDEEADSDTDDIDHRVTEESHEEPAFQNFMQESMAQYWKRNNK
UniProt P62993, whole entry, looked up: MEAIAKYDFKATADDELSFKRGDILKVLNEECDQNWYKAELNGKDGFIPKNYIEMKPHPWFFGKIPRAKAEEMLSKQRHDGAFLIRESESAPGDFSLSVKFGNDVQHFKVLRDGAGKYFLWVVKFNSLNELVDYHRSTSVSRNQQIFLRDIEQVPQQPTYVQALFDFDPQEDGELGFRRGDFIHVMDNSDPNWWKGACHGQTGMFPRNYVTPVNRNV
UniProt O14908: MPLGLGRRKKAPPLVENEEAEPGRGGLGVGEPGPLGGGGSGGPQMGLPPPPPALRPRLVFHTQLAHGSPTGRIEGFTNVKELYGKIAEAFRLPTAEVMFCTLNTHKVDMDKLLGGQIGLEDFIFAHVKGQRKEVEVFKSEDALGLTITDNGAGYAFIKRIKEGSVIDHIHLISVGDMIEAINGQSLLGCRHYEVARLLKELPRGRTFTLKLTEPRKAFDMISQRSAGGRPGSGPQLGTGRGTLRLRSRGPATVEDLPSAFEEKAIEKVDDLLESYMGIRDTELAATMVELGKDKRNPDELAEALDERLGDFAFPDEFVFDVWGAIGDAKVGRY
UniProt Q49A26: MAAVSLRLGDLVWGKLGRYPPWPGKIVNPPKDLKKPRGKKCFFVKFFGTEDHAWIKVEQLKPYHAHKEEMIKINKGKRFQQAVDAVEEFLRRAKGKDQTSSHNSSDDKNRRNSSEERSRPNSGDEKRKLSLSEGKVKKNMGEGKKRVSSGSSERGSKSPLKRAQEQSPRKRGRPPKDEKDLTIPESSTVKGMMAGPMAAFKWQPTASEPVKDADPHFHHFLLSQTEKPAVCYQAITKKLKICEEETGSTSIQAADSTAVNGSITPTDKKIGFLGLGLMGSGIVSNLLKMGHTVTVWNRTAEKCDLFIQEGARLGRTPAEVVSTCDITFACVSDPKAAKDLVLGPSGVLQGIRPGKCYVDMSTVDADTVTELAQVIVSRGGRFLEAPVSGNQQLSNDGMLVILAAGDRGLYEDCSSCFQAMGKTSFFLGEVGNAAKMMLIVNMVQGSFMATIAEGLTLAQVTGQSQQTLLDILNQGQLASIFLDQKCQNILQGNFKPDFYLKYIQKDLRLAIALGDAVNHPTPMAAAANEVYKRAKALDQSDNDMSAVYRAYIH
UniProt P28799: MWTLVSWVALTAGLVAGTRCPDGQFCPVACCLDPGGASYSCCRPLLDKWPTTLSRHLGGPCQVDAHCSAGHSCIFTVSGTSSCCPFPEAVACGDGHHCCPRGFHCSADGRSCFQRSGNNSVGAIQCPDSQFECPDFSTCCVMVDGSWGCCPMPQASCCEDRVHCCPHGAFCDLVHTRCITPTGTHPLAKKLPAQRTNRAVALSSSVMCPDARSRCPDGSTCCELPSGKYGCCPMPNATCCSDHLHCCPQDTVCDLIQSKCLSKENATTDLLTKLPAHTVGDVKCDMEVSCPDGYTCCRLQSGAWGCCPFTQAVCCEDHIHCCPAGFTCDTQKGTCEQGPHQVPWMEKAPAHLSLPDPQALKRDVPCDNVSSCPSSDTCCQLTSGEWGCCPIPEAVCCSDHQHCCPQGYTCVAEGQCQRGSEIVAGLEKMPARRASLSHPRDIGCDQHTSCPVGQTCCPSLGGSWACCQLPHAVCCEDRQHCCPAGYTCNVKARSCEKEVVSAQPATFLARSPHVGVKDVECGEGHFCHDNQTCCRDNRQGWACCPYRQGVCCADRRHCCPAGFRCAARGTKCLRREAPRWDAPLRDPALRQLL
UniProt Q9HC38: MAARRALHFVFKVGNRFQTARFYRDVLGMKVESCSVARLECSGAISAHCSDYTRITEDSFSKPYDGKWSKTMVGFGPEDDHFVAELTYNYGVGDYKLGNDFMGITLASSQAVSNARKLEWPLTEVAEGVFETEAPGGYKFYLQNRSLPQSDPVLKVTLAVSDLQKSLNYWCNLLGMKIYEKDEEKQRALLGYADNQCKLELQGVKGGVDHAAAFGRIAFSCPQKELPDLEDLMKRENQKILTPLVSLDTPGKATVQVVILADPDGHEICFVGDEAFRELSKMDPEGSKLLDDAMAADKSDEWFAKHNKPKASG
UniProt Q86VQ1: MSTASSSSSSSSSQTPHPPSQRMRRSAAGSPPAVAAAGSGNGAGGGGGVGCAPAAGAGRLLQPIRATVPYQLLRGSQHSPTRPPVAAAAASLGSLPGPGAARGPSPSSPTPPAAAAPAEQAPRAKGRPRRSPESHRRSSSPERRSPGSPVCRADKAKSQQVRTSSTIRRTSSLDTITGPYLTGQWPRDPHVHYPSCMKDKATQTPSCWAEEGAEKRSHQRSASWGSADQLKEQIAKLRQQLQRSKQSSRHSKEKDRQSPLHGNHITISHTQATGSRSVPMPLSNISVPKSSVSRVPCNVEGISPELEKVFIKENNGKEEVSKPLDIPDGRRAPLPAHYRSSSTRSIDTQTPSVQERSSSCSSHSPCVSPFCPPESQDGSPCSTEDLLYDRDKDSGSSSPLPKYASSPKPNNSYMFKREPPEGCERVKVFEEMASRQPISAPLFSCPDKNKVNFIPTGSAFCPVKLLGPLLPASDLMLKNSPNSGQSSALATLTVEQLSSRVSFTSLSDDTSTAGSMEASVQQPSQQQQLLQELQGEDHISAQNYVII
UniProt Q9NWU2, whole entry, looked up: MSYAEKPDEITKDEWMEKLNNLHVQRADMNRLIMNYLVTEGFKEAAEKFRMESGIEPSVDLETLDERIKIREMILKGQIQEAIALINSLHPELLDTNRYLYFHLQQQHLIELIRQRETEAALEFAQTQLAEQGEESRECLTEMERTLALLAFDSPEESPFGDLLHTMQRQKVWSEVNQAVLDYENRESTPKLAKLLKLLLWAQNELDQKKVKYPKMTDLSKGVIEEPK
UniProt O14653: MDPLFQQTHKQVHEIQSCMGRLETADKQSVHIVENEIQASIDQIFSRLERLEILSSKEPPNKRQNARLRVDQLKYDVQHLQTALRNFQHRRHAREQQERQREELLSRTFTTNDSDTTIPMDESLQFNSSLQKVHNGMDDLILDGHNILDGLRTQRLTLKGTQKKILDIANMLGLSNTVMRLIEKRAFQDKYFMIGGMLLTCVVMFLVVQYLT
UniProt P62873, whole entry, looked up: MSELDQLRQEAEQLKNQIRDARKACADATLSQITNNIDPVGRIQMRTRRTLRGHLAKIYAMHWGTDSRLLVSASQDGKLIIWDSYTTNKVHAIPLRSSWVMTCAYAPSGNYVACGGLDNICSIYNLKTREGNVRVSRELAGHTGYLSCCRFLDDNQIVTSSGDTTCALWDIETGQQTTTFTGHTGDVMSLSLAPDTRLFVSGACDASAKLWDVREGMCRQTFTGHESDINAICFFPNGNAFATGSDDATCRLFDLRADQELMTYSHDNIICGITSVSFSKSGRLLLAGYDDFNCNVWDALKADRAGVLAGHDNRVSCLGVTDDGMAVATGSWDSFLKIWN

Tests used:
Test in all cases: log2 fold change, soluble protein after heating vs DMSO (PISA); higher = thermal stabilisation; K562 cells, 10 uM, 30 min; active = over 0.2 and 3.5 SD of the protein, either way, in both replicates (recomputed)
erlotinib = compound: C#Cc1cccc(Nc2ncnc3cc(OCCOC)c(OCCOC)cc23)c1 [erlotinib]
Outline: (§1)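 Soluble protein was quantified by TMTpro 16plex LC-MS/MS after channel sums were equalised. It was obtained as the supernatant after 21,000xg for 90 min from pooled aliquots of K562 cells (2×10^6 cells/mL, 10 μM compound, 30 min) heated for 3 min across 48°C-58°C and extracted in PBS with 0.5% NP-40 at 4°C. Thermal stability values are relative to control samples and come from duplicates. They are given as log2 fold changes.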

[1] = compound: C/C(=N\NC(=O)C1=CC(=CC=C1)S(=O)(=O)N2CCOCC2)/C3=C(C=CC(=C3)Cl)O
Outline: as §1

[2] = compound: C1=CC(=C(C=C1Cl)C2=NC3=NC=CN=C3C(=N2)NC4=CC=NC=C4)F
Outline: as §1

[3] = compound: C1=CC(=CC=C1C2=NC3=C(N2)C=C(C=C3)C(=O)N)OC4=CC=C(C=C4)Cl
Outline: as §1

[4] = compound: C1=CC2=C(C=CC(=C2)/C=C\3/C(=O)NC(=NCC4=CC=CS4)S3)N=C1
Outline: as §1

[5] = compound: C1=CC2=NC=CN=C2C=C1/C=C/3\C(=O)NC(=O)S3
Outline: as §1

[6] = compound: C1=CC=C(C=C1)C2=NC(=C(N2)C3=CC=NC=C3)C4=CC(=C(C=C4)Cl)O
Outline: as §1

[7] = compound: C1=CC=C2C(=C1)C3=NNC4=CC=CC(=C43)C2=O
Outline: as §1

[8] = compound: C1CCN(C1)C(=O)NC2=CC=CC(=C2)NC3=NC=C(C(=N3)NCCC4=CN=CN4)Br
Outline: as §1

[9] = compound: C1CN(CCC1(CC2=CC=C(C=C2)Cl)N)C3=NC=NC4=C3C=CN4
Outline: as §1

Row | Target | log2 fold change (erlotinib) | log2 fold change [1] | log2 fold change [2] | log2 fold change [3] | log2 fold change [4] | log2 fold change [5] | log2 fold change [6] | log2 fold change [7] | log2 fold change [8] | log2 fold change [9]
1 | GNA13 (UniProt Q14344) | inactive: -0.01 | inactive: 0.046 | inactive: 0.009 | inactive: 0.034 | inactive: 0.036 | inactive: 0.001 | inactive: -0.024 | inactive: -0.031 | inactive: -0.031 | inactive: 0.083
2 | GPX3 (UniProt P22352) | inactive: -0.217 | inactive: -0.089 | inactive: 0.052 | inactive: 0.015 | inactive: -0.046 | inactive: -0.048 | inactive: -0.106 | inactive: -0.053 | inactive: -0.192 | inactive: 0.143
3 | GPD2 (UniProt P43304) | inactive: -0.01 | inactive: -0.015 | inactive: 0.051 | inactive: 0.02 | inactive: 0.004 | inactive: 0.026 | inactive: 0.067 | inactive: -0.021 | inactive: 0.008 | inactive: 0.024
4 | GPAT4 (UniProt Q86UL3) | inactive: -0.017 | inactive: -0.002 | inactive: 0.06 | inactive: -0.021 | inactive: -0.016 | inactive: -0.016 | inactive: -0.01 | inactive: 0.032 | inactive: -0.087 | inactive: 0.07
5 | GNPNAT1 (UniProt Q96EK6) | inactive: -0.053 | inactive: 0.007 | inactive: 0.032 | inactive: -0.005 | inactive: 0 | inactive: -0.035 | inactive: 0.002 | inactive: 0.017 | inactive: -0.042 | inactive: -0.002
6 | GMEB2 (UniProt Q9UKD1) | inactive: 0.003 | inactive: 0.039 | inactive: 0.168 | inactive: 0.004 | inactive: -0.009 | inactive: 0.047 | inactive: -0.022 | inactive: -0.117 | inactive: -0.105 | inactive: 0.024
7 | GLG1 isoform 2 (UniProt Q92896) | inactive: -0.002 | inactive: 0.027 | inactive: 0.1 | inactive: 0.005 | inactive: -0.022 | inactive: 0.062 | inactive: -0.004 | inactive: -0.04 | inactive: -0.012 | inactive: 0.054
8 | GPN1 isoform 5 (UniProt Q9HCN4) | inactive: -0.031 | inactive: 0.019 | inactive: 0.033 | inactive: 0.025 | inactive: 0.031 | inactive: -0.032 | inactive: -0.005 | inactive: 0.019 | inactive: -0.051 | inactive: 0.03
9 | GOLGB1 isoform 2 (UniProt Q14789) | inactive: -0.152 | inactive: -0.045 | active: -0.312 | inactive: -0.055 | inactive: 0.099 | inactive: 0.071 | inactive: -0.049 | inactive: -0.059 | inactive: -0.059 | inactive: -0.08
10 | GLUL (UniProt P15104) | inactive: -0.058 | inactive: 0.016 | inactive: 0.027 | inactive: 0.022 | inactive: -0.006 | inactive: -0.003 | inactive: -0.007 | inactive: -0.045 | inactive: -0.037 | inactive: 0.017
11 | GRB2 (UniProt P62993) | inactive: -0.03 | inactive: 0 | inactive: 0.053 | inactive: 0.004 | inactive: 0.014 | inactive: 0.054 | inactive: -0.013 | inactive: 0.023 | inactive: 0.029 | inactive: 0.007
12 | GIPC1 (UniProt O14908) | inactive: 0.055 | inactive: 0.035 | inactive: -0.013 | inactive: -0.038 | inactive: 0.068 | inactive: -0.054 | inactive: 0.012 | inactive: -0.014 | inactive: -0.005 | inactive: -0.095
13 | GLIPR2 (UniProt Q9H4G4) | inactive: 0.039 | inactive: 0.054 | inactive: -0.035 | inactive: 0.15 | inactive: 0.023 | inactive: -0.019 | inactive: -0.062 | inactive: -0.028 | inactive: 0.045 | inactive: -0.058
14 | GLYR1 (UniProt Q49A26) | inactive: -0.053 | inactive: -0.211 | inactive: -0.289 | inactive: 0.05 | inactive: -0.352 | inactive: 0.1 | inactive: -0.021 | inactive: -0.034 | inactive: 0.119 | inactive: -0.03
15 | GNPDA2 (UniProt Q8TDQ7) | inactive: 0.005 | inactive: 0.037 | inactive: -0.023 | inactive: 0.042 | inactive: 0.027 | inactive: 0.079 | inactive: -0.058 | inactive: -0.061 | inactive: 0.042 | inactive: -0.014
16 | GRPEL1 (UniProt Q9HAV7) | inactive: -0.016 | inactive: 0.008 | inactive: 0.035 | inactive: -0.012 | inactive: 0.012 | inactive: -0.002 | inactive: -0.002 | inactive: -0.002 | inactive: 0.018 | inactive: 0.005
17 | GLO1 (UniProt Q04760) | inactive: 0.009 | inactive: 0.028 | inactive: 0.085 | inactive: -0.013 | inactive: 0.003 | inactive: -0.004 | inactive: 0.011 | inactive: -0.001 | inactive: 0.031 | inactive: 0.048
18 | GRN (UniProt P28799) | inactive: 0.04 | inactive: 0.014 | inactive: -0.093 | inactive: -0.15 | inactive: 0.034 | inactive: 0.017 | inactive: -0.086 | inactive: -0.211 | inactive: 0.024 | inactive: -0.049
19 | GLUD1 (UniProt P00367) | inactive: 0.068 | inactive: -0.009 | inactive: 0.051 | inactive: 0.026 | inactive: 0.039 | inactive: -0.018 | inactive: -0.033 | inactive: 0 | inactive: 0.05 | inactive: -0.027
20 | GLOD4 isoform 2 (UniProt Q9HC38) | inactive: 0.007 | inactive: 0.064 | inactive: 0.04 | inactive: -0.023 | inactive: 0.049 | inactive: 0.01 | inactive: 0.002 | inactive: 0.029 | inactive: 0.012 | inactive: -0.009
21 | GNAI3 (UniProt P08754) | inactive: -0.078 | inactive: -0.038 | inactive: -0.01 | inactive: 0.205 | inactive: 0.021 | inactive: 0 | inactive: 0.036 | inactive: -0.026 | inactive: -0.047 | inactive: 0.026
22 | GPX4 (UniProt P36969) | inactive: -0.021 | inactive: 0.035 | inactive: -0.012 | inactive: 0.057 | inactive: -0.007 | inactive: 0.006 | inactive: 0.142 | inactive: -0.063 | inactive: -0.036 | inactive: 0.058
23 | GLCCI1 (UniProt Q86VQ1) | inactive: 0.027 | inactive: -0.101 | inactive: -0.058 | inactive: -0.006 | inactive: 0.091 | inactive: 0.023 | inactive: -0.264 | inactive: -0.017 | inactive: -0.044 | inactive: -0.024
24 | GNE isoform 2 (UniProt Q9Y223) | inactive: -0.029 | inactive: 0.019 | inactive: 0.02 | inactive: 0.065 | inactive: 0.045 | inactive: -0.004 | inactive: -0.072 | inactive: -0.01 | inactive: -0.016 | inactive: 0.067
25 | GID8 (UniProt Q9NWU2) | inactive: -0.037 | inactive: -0.013 | inactive: 0.002 | inactive: 0.024 | inactive: 0.036 | inactive: 0.061 | inactive: 0.029 | inactive: 0.027 | inactive: 0.005 | inactive: -0.086
26 | GOSR2 isoform 2 (UniProt O14653) | inactive: 0.034 | inactive: 0.144 |  | inactive: 0.031 | inactive: -0.145 | inactive: 0.027 | inactive: 0.052 | inactive: -0.016 | inactive: -0.078 | inactive: -0.035
27 | GNB1 (UniProt P62873) | inactive: -0.055 | inactive: 0.043 | inactive: -0.016 | inactive: 0.058 | inactive: -0.021 | inactive: -0.018 | inactive: 0.007 | inactive: -0.06 | inactive: -0.088 | inactive: -0.031
28 | GOLGA7B (UniProt Q2TAP0) | inactive: -0.105 | inactive: 0.024 |  | inactive: 0.057 | inactive: -0.026 | inactive: 0.07 | inactive: -0.063 | inactive: -0.03 | inactive: -0.168 | inactive: 0.109

Reprinted at random: 2 records from the list.
Row | Target | log2 fold change (erlotinib) | log2 fold change [1] | log2 fold change [2] | log2 fold change [3] | log2 fold change [4] | log2 fold change [5] | log2 fold change [6] | log2 fold change [7] | log2 fold change [8] | log2 fold change [9]
12 | GIPC1 (UniProt O14908) | inactive: 0.055 | inactive: 0.035 | inactive: -0.013 | inactive: -0.038 | inactive: 0.068 | inactive: -0.054 | inactive: 0.012 | inactive: -0.014 | inactive: -0.005 | inactive: -0.095
8 | GPN1 isoform 5 (UniProt Q9HCN4) | inactive: -0.031 | inactive: 0.019 | inactive: 0.033 | inactive: 0.025 | inactive: 0.031 | inactive: -0.032 | inactive: -0.005 | inactive: 0.019 | inactive: -0.051 | inactive: 0.03
